Assay results as given in US12201659B2 (priority 2018, dated 2025).
For at least one compound, name, drawing or mass did not settle the structure.

Tested on: GBM22 cells
Assay type: cell-based, human

With `N#CC[C@H](C1CCCC1)n1cc(-c2ncnc3[nH]ccc23)cn1` [Ruxolitinib] the “effect on the IFNβ-induced antiviral state against SFV” value was “can be reversed”.
